{"source": "PubChem BioAssay AID1224830 | NIAID – 2016", "assay": "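Genes whose knock-down alters the TNF-alpha reporter response to LPS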 (primary screen)", "cells": "human THP-1 monocytic leukaemia cells, TNF dual-luciferase reporter clone, PMA-differentiated to macrophage-like cells", "reagents": "siRNA pool against human genes, 50 nM", "duration": "LPS for 4 h, given about 3 days after siRNA transfection", "conditions": "bacterial LPS (TLR4 ligand), 10 ng/ml", "measured": "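TNF firefly reporter luminescence divided by renilla, normalised to the plate median, then turned into a robust z-score for each replicate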", "scale": "TNF reporter robust z-score: higher = stronger TNF reporter response to LPS", "call rule": "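a well is active when its z-score exceeds 2.8 or falls below -1.5; control wells carry no call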", "note": "The whole screen tested about 18,000 reagents; below is a random part of them. About 2,900 of them (16%) were called active. 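Calls are made per well; low scores hint the gene aids the LPS response, high scores that it dampens it.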 Repeated entries: four replicate wells of each siRNA pool. Reagent sequences are not shown."}
{"gene": "MYOT (GeneID 9499)", "TNF reporter robust z-score": 0.59, "call": "inactive"}
{"gene": "MYOT (GeneID 9499)", "TNF reporter robust z-score": 0.85, "call": "inactive"}
{"gene": "MYOT (GeneID 9499)", "TNF reporter robust z-score": 1.49, "call": "inactive"}
{"gene": "NUF2 (GeneID 83540)", "TNF reporter robust z-score": 0.52, "call": "inactive"}
{"gene": "NUF2 (GeneID 83540)", "TNF reporter robust z-score": 1.71, "call": "inactive"}
{"gene": "NUF2 (GeneID 83540)", "TNF reporter robust z-score": -0.4, "call": "inactive"}
{"gene": "NUF2 (GeneID 83540)", "TNF reporter robust z-score": 0.31, "call": "inactive"}
{"gene": "IFT52 (GeneID 51098)", "TNF reporter robust z-score": -0.43, "call": "inactive"}
{"gene": "IFT52 (GeneID 51098)", "TNF reporter robust z-score": 0.27, "call": "inactive"}
{"gene": "IFT52 (GeneID 51098)", "TNF reporter robust z-score": 0.04, "call": "inactive"}
{"gene": "SOCS4 (GeneID 122809)", "TNF reporter robust z-score": -0.81, "call": "inactive"}
{"gene": "SOCS4 (GeneID 122809)", "TNF reporter robust z-score": -2.1, "call": "active"}
{"gene": "SOCS4 (GeneID 122809)", "TNF reporter robust z-score": 0.45, "call": "inactive"}
{"gene": "SOCS4 (GeneID 122809)", "TNF reporter robust z-score": 1.12, "call": "inactive"}
{"gene": "SYS1 (GeneID 90196)", "TNF reporter robust z-score": -0.15, "call": "inactive"}
{"gene": "SYS1 (GeneID 90196)", "TNF reporter robust z-score": -0.47, "call": "inactive"}
{"gene": "SYS1 (GeneID 90196)", "TNF reporter robust z-score": 0.05, "call": "inactive"}
{"gene": "SYS1 (GeneID 90196)", "TNF reporter robust z-score": -0.44, "call": "inactive"}
{"gene": "TRIM37 (GeneID 4591)", "TNF reporter robust z-score": -0.93, "call": "inactive"}
{"gene": "TRIM37 (GeneID 4591)", "TNF reporter robust z-score": -1.71, "call": "active"}
{"gene": "TRIM37 (GeneID 4591)", "TNF reporter robust z-score": -0.65, "call": "inactive"}
{"gene": "TRIM37 (GeneID 4591)", "TNF reporter robust z-score": -0.88, "call": "inactive"}

Entries listed so far whose gene name begins with T or t:
{"gene": "TRIM37 (GeneID 4591)", "TNF reporter robust z-score": -0.93, "call": "inactive"}
{"gene": "TRIM37 (GeneID 4591)", "TNF reporter robust z-score": -1.71, "call": "active"}
{"gene": "TRIM37 (GeneID 4591)", "TNF reporter robust z-score": -0.65, "call": "inactive"}
{"gene": "TRIM37 (GeneID 4591)", "TNF reporter robust z-score": -0.88, "call": "inactive"}

Continued.
{"gene": "LHX8 (GeneID 431707)", "TNF reporter robust z-score": 0.88, "call": "inactive"}
{"gene": "LHX8 (GeneID 431707)", "TNF reporter robust z-score": -0.47, "call": "inactive"}
{"gene": "LHX8 (GeneID 431707)", "TNF reporter robust z-score": -0.11, "call": "inactive"}
{"gene": "LHX8 (GeneID 431707)", "TNF reporter robust z-score": -0.52, "call": "inactive"}
{"gene": "TEX28 (GeneID 1527)", "TNF reporter robust z-score": 1.22, "call": "inactive"}
{"gene": "TEX28 (GeneID 1527)", "TNF reporter robust z-score": 1.34, "call": "inactive"}
{"gene": "TEX28 (GeneID 1527)", "TNF reporter robust z-score": 2.44, "call": "inactive"}
{"gene": "TEX28 (GeneID 1527)", "TNF reporter robust z-score": 1.09, "call": "inactive"}
{"gene": "C1QBP (GeneID 708)", "TNF reporter robust z-score": -0.21, "call": "inactive"}
{"gene": "C1QBP (GeneID 708)", "TNF reporter robust z-score": 0.69, "call": "inactive"}
{"gene": "C1QBP (GeneID 708)", "TNF reporter robust z-score": 2.51, "call": "inactive"}
{"gene": "C1QBP (GeneID 708)", "TNF reporter robust z-score": 0.03, "call": "inactive"}
{"gene": "SNN (GeneID 8303)", "TNF reporter robust z-score": 0.91, "call": "inactive"}
{"gene": "SNN (GeneID 8303)", "TNF reporter robust z-score": 2.22, "call": "inactive"}
{"gene": "SNN (GeneID 8303)", "TNF reporter robust z-score": 2.48, "call": "inactive"}
{"gene": "SNN (GeneID 8303)", "TNF reporter robust z-score": 2.03, "call": "inactive"}
{"gene": "ANKRD44 (GeneID 91526)", "TNF reporter robust z-score": -0.69, "call": "inactive"}
{"gene": "ANKRD44 (GeneID 91526)", "TNF reporter robust z-score": 0, "call": "inactive"}
{"gene": "ANKRD44 (GeneID 91526)", "TNF reporter robust z-score": -0.21, "call": "inactive"}
{"gene": "ANKRD44 (GeneID 91526)", "TNF reporter robust z-score": -0.09, "call": "inactive"}
{"gene": "EZHIP (GeneID 340602)", "TNF reporter robust z-score": -0.41, "call": "inactive"}
{"gene": "EZHIP (GeneID 340602)", "TNF reporter robust z-score": -0.06, "call": "inactive"}
{"gene": "EZHIP (GeneID 340602)", "TNF reporter robust z-score": 0.36, "call": "inactive"}
{"gene": "EZHIP (GeneID 340602)", "TNF reporter robust z-score": -0.76, "call": "inactive"}
{"gene": "PPP4R1 (GeneID 9989)", "TNF reporter robust z-score": 1.26, "call": "inactive"}
{"gene": "PPP4R1 (GeneID 9989)", "TNF reporter robust z-score": 1.57, "call": "inactive"}
{"gene": "PPP4R1 (GeneID 9989)", "TNF reporter robust z-score": -0.67, "call": "inactive"}
{"gene": "PPP4R1 (GeneID 9989)", "TNF reporter robust z-score": -0.71, "call": "inactive"}
